# These are yes or no findings as the source states them, for the method shown. Binding seen in cells or lysates may run through a third protein. Some results given as binding are weak or reduced against the parent protein; the word gives no strength.
# Molecular target: T1, Cdc37 (Cell division cycle protein 37) (human (endogenous in MDA-MB-453 and MDA-MB-231)) (UniProt Q16543)
# T1 sequence: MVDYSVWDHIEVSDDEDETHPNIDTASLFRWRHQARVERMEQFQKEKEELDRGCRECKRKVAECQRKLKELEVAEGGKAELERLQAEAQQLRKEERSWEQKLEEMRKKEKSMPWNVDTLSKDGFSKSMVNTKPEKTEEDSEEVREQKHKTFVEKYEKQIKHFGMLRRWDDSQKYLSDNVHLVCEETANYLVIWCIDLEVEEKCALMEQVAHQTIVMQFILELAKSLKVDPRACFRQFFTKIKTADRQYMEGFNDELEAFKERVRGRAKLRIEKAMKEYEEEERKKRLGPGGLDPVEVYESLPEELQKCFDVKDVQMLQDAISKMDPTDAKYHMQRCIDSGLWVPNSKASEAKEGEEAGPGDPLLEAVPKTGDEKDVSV
# Assay: co-IP; membrane fractions of MDA-MB-453 and MDA-MB-231 cells immunoprecipitated with anti-Cdc37 (18 h, 4°C, protein G-Sepharose), Western blot with anti-HSP90, anti-HER2, anti-EGFR; cells cultured in control medium or with 200 µg/ml anti-Cdc37 or 200 µg/ml mAb 4C5 for 16 h; densitometry
substance,measurement,value
EGFR (from UniProt P00533 25-1210) (receptor),binding,binds
